We go through one molecule from PMC8395313, “Membrane Association Modes of Natural Anticancer Peptides: Mechanistic Details on Helicity, Orientation, and Surface Coverage” (International Journal of Molecular Sciences, 2021).

In this assay the target is Temporin-La (Rana temporaria). The assay is described as follows: condition: only bound to PC/PG or PC/PS vesicles (2 µM peptide, 100 µM lipid); intrinsic tyrosine fluorescence; 2 µM peptide with 100 µM lipid (PC/PG or PC/PS vesicles), PBS, 25 °C, excitation at 275 nm; emission compared with that of the free peptide; both purified.

These are yes or no findings as the source states them, for the method shown.

B1: Temporin-La (peptide)
peptide: LLRHVVKILEKYL
modifications: C-terminal amide
Turning to B1, the binding result is recorded as “no binding”.
